Laboratory results: the supplement of paper PMC12889115
This is one part of the list. Values are raw readings; no control value is given beside them.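 Primary screen: polymyxin B was added at a level permeabilizing Salmonella outer membranes while sparing inner membranes. DMSO wells, both with and without polymyxin B, established maximum growth. Plate-to-plate variation meant each plate was ranked on its own, and the lowest-OD600 compounds were selected as hits.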

Tested on: Salmonella enterica serovar Typhimurium SL1344
Test: bacterial growth OD600 after 18 h with compound and polymyxin B; higher = more bacterial growth (less inhibition)
Conditions: 50 µM, Mueller-Hinton broth

| Structure (SMILES) | bacterial growth OD600 (polymyxin B 0.75 µg/mL) | bacterial growth OD600 (polymyxin B 1 µg/mL) |
| --- | --- | --- |
| CCOc1ccc2nc(N3CCCC(C(=O)NCCn4nc(C)cc4C)C3)nc(C)c2c1 (centres undefined) | 0.866 | – |
| CCn1ccnc1CNC(=O)c1cc(COc2ccc3sc(C)nc3c2)on1 | 0.959 | – |
| COc1cc(CN2CCC(CO)(CCCc3ccccc3)CC2)cc(OC)c1OC | – | 0.951 |
| O=C(c1ccc2oc(Cc3ccccc3)nc2c1)N(CCO)Cc1ccccc1 | 0.993 | – |
| COc1ccc(CC2(CCC(=O)N3CCC(Cc4ccccc4)CC3)CCC(=O)N2)c(F)c1 (centres undefined) | 0.744 | – |
| O=C(NC1(c2ccccc2)CC1)c1ccc(OC2CCN(C(=O)C3CC3)CC2)cc1 | – | 1.1 |
| COc1cccc(-c2ccccc2NC(=O)C2CCN(Cc3ccccc3F)CC2)c1 | – | 0.416 |
| CCCCNC(=O)c1cc(NC(=O)COC)c2c(c1)ncn2CCc1ccccc1 | 0.793 | – |
| COc1ccc(CN2CCN(Cc3ccccc3F)C(CCO)C2)c(F)c1 (centres undefined) | – | 0.906 |
| CN(CC1CCCCO1)C(=O)CCc1nnc(CCc2c[nH]c3ccccc23)o1 (centres undefined) | – | 0.806 |
| O=C([C@H]1CC[C@H](O)CC1)N1CCC(C2CCN(Cc3cccc(F)c3F)CC2)C1 (some centres undefined) | 0.868 | – |
| COc1cc(C(=O)NC2(c3ccccc3)CC2)ccc1OC1CCN(C(C)=O)CC1 | – | 0.977 |
| CCN(CC)CCNC(=O)C1CCN(C2CCN(Cc3cccc(C)n3)CC2)CC1 | – | 1.05 |
| Cc1nc2ccc(C(=O)N3CCc4c(cnc(C)c4CNC(=O)Cc4ccsc4)C3)cc2nc1C | 0.827 | – |
| Cc1cc(C(=O)N(C)C(Cc2ccccc2)C2CCN(C(=O)CSc3ncccn3)CC2)n(C)n1 (centres undefined) | 1 | – |
| COc1ccc(NC(=O)CCC2CCCN(C(=O)C3=C(C)OCCO3)C2)cc1Cl (centres undefined) | – | 0.881 |
| CCOC(=O)C1(Cc2ccc(F)cc2)CCCN(C(=O)c2cc(OC)ccc2OC)C1 (centres undefined) | – | 0.384 |
| Cn1cc(CCNC(=O)c2ccccc2OC2CCN(C(=O)c3cccnc3)CC2)cn1 | 0.808 | – |
| CC(C)(C)CN1CCC(C2CCN(CCCn3cccn3)CC2)C1 (centres undefined) | 0.896 | – |

Some of the entries above in another layout.
Structure (SMILES) | bacterial growth OD600 (polymyxin B 0.75 µg/mL) | bacterial growth OD600 (polymyxin B 1 µg/mL)
Cc1nc2ccc(C(=O)N3CCc4c(cnc(C)c4CNC(=O)Cc4ccsc4)C3)cc2nc1C | 0.827 | –
Cc1cc(C(=O)N(C)C(Cc2ccccc2)C2CCN(C(=O)CSc3ncccn3)CC2)n(C)n1 (centres undefined) | 1 | –
